The target of assay [1] is Transforming growth factor beta receptor 2 (TβRII) (human (endogenous in SW480 and HCT116)) (UniProt P37173). Nature of the assay: co-IP; endogenous TβRII and Smurf1; lysates of SW480 cells overexpressing SLC14A1 or vector and of HCT116 cells with SLC14A1 knockdown or control; IP with anti-TβRII antibody, immunoblot for Smurf1.
Assay [2] has as its target T1, His-SLC14A1 (UniProt Q13336).
T1 sequence: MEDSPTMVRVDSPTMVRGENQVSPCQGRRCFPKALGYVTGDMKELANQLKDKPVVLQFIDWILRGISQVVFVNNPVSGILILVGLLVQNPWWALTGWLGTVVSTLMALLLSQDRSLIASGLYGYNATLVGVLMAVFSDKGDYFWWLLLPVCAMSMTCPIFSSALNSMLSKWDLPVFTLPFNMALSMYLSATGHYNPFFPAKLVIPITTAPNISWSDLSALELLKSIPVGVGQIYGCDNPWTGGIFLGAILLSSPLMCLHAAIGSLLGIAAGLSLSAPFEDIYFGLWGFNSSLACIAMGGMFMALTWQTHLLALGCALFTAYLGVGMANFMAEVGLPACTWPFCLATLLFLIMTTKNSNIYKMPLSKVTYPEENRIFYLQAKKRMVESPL
Nature of the assay: co-IP; 293 T cells transfected with His-SLC14A1 and Flag-TβRII; lysates immunoprecipitated with anti-His antibodies, Flag-tagged protein detected by immunoblot.

By UniProt entry, the sequences of proteins in these tests, tags left out. Residues count along the entry.
UniProt P37173, residues 23-567: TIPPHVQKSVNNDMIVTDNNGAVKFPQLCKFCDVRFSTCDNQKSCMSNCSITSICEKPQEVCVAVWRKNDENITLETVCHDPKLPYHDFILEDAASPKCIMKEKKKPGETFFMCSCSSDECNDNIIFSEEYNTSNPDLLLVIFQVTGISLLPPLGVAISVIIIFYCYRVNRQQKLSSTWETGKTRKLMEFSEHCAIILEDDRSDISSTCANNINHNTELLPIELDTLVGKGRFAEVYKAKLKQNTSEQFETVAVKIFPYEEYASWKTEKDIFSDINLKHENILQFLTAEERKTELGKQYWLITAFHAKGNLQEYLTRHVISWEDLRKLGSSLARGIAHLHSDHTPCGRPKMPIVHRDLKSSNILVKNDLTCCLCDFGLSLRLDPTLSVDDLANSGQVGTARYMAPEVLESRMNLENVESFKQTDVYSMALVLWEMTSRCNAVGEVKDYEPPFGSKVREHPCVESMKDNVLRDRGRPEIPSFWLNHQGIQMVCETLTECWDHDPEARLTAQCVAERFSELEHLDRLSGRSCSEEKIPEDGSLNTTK
UniProt Q9HCE7: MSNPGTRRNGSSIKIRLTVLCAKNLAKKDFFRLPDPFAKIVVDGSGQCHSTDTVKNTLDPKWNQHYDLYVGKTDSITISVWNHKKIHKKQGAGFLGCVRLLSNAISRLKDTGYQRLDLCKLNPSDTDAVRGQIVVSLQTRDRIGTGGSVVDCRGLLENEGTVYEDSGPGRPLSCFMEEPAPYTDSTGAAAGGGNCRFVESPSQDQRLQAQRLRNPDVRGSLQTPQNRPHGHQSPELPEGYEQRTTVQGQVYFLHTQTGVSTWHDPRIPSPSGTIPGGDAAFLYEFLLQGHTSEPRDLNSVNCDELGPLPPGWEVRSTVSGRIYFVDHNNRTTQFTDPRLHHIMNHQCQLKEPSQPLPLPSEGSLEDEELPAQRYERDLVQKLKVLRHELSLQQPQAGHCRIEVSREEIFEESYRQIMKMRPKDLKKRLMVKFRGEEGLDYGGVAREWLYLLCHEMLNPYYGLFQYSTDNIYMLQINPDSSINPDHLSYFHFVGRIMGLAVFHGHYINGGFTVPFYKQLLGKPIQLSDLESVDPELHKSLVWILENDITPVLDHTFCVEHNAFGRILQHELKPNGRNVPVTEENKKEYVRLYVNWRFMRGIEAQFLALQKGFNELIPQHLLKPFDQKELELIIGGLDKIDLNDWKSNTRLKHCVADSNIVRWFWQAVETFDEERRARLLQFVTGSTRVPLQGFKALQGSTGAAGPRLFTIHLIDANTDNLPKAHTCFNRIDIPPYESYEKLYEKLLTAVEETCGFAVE

Assay [3] has as its target T2, Solute Carrier Family 14 Member 1 (SLC14A1) (human (endogenous in SW480)) (UniProt Q13336).
T2 sequence: T1 sequence
Nature of the assay: co-IP; endogenous proteins in SW480 cell lysate; IP with anti-SLC14A1 or anti-TβRII antibody, protein A/G-agarose, washed with PBS, immunoblot.

Results on 3 substances are retold here after PMC11282742.

Results are given in words; binding and its absence hold for the method and conditions named. Binding seen in cells or lysates may run through a third protein. Some entries that bind do so weakly or less than the wild type. For part of these data: Sequences can lack the tags named with a protein.

“E3 ubiquitin ligase Smurf1 (from UniProt Q9HCE7 1-757) (enzyme)”: the binding entry in assay [1] was “binds”.
For “Flag-TβRII (from UniProt P37173 23-567) (receptor)”, in assay [2], the binding result is “binds”.
With “Transforming growth factor beta receptor 2 (TβRII) (from UniProt P37173 23-567)”, in assay [3], the binding result is listed as “binds”.
